# Article PMC10163288
# Some of the results follow.
# B1: il10ra_site1_sap_20_mot_HHH_b1_01233_000000085_0001_1_18_H_._HHH_b2_02546_0001_0000200011_0000001_1_0001 (protein)
# chain: SSSSSDEEFIRLLQEAIRLAFQNRDEELLRALWRLAKEWGKEGDEKYAEELRELIEEVGSSSSSS
# B2: il10ra_site1_normal_mot_b26a303360aa2756ef5b79665ce52f45_0001_000000179_0001_1_11_H_._HHH_b2_08246_0001_0000200038_0000002_0 (protein)
# chain: SSSSSEESQELYKLSREAAELLAEGDEEEARRLLEEALELAEEKNNFVFLFSLEHLLRAQSSSSS
# B3: il10ra_site1_normal_mot_HHH_b2_00643_000000120_0001_23_40_H_._HHH_b2_03794_0001_0000300008_0000001_0 (protein)
# chain: SSSSDAIQEAWEAVKRAAELFQRGDPEKAEELLEEAEERLEELGNEVAVLQVRHLLRAIEQSSSS
# B4: il10ra_site1_sap_19_mot_HHH_b2_05410_000000077_0001_20_37_H_._HHH_b1_01497_0001_0000400057_0000002_0_0001 (protein)
# chain: SSSSSREEVEELLEELKELLEEGDRERFLRLAQEIIHAAIQVSDPELLRALWELVREWAENSSSS
# B5: il10ra_site1_sap_25_mot_HHH_b2_08186_000000021_0001_43_56_H_._HHH_b2_08341_0002_0000500037_0000003_0_0001 (protein)
# chain: SSSSSSDEEEVEELLERAEHIEDRQERAELLLEALRIAFRAKNPELIQAVWRAIREIVGSSSSSS
# B6: il10ra_site1_normal_mot_HHH_b1_05056_000000217_0001_1_20_H_._HHH_b2_04080_0001_0000400030_0000001_0 (protein)
# chain: SSSSSSSSEEEVEKILEEAEEVDDQREANEILLRALRLAFELQDPEALRLVWKVVKELSSSSSSS
# B7: il10ra_site1_normal_mot_HHH_b1_04771_000000013_0001_40_56_H_._HHH_b2_03045_0001_0000400026_0000001_0 (protein)
# chain: SSSSSDDELLELSLEAFRLALRGNPEEAEKVLEQAEKLAEELNNERALRVVRDLLEALGSSSSSS
# B8: il10ra_site1_normal_mot_HHH_b2_00837_af2_000000287_0001_40_54_H_._HHH_b1_04782_af2_0001_0000400014_0000001_0 (protein)
# chain: SSSSDEEERVEELIEEAEELIEEGDPRRASELLAEAVRHAFRSKDEELLRRVWEIVHKLKSSSSS
# B9: il10ra_site1_sap_22_mot_HHH_b1_05326_000000242_0001_1_20_H_._HHH_b1_05575_0001_0000500022_0000001_0_0001 (protein)
# chain: SSSSDSEEVFRLLEEAAELLRDGDPEEARKLLEEALELAEELGDRNFAENIRYLLEDVERHSSSS
# B10: il10ra_site1_sap_11_mot_HHH_b2_07442_000000239_0001_40_54_H_._HHH_b2_05772_af2_0001_0000100001_0000001_1_0001 (protein)
# chain: SSSSDEEYEEVEEVIREAIELYKNGDPEEARELLEELLEKLEELGNWVAVHSVRHLLELLSSSSS
# B11: il10ra_site1_sap_24_mot_HHH_b1_01563_af2_000000118_0001_40_54_H_._HHH_b2_01412_0001_0000100003_0000001_0_0001 (protein)
# chain: SSSSSEAEELYELLRRINEALSEGDEELVEKLLEEVKKIAEELGNRVFRMQIEFLEEILKSSSSS
# B12: il10ra_site1_normal_mot_HHH_b2_03827_000000021_0001_1_19_H_._HHH_b1_03568_0001_0000100001_0000001_0 (protein)
# chain: SSSSEEREEAERLLEQIKELLEEGDLEEVWELLKRLAEIAFKLNDEELLEELLRLSHLAARNSSS
# B13: il10ra_site1_normal_mot_745ba417a8ead33aea5db1974d5d2f48_0001_1_af2_000000024_0001_16_30_H_._HHH_b1_07698_0001_0000300026_0000001_0 (protein)
# chain: SSSSDREVLELIVRASRLILRGNPEEAQEVIEEAERLAEEIGDPRLRLSVRFEKHLLESFESSSS
# B14: il10ra_site1_sap_15_mot_HHH_b2_00230_000000227_0001_1_19_H_._HHH_b1_00399_0001_0000100015_0000001_0_0001 (protein)
# chain: SSSSSSEVAERSARHFFEAIRQIDDEEYVKLALRFMRADAEWTNDPEIHELVRELEELFSSSSSS
# B15: il10ra_site1_normal_mot_HHH_b2_01310_000000089_0001_41_55_H_._HHH_b1_04734_af2_0001_0000300019_0000001_0_af2pred_dldesign_0_af2pred (protein)
# chain: SSSSSEKREEVKRILEKVKELIEEGKEEEAVELLRKAVRLATELGDSELLQEIKELAKKLESSSS
# B16: il10ra_site1_normal_mot_HHH_b1_05672_af2_000000246_0001_1_19_H_._HHH_b2_02879_af2_0001_0000400017_0000002_0 (protein)
# chain: SSSSDEEQRVAELLFRVVRLWYEGNPEEAEEVLKEAERLAKELGDEELERYVEIAELFVRSSSSS
# B17: il10ra_site1_sap_22_mot_HHH_b1_08593_000000040_0001_43_57_H_._HHH_b2_00928_0001_0000200013_0000002_0_0001 (protein)
# chain: SSSSDEEQEELLELLREIFRLALRGDPEEAEKLLKQVKELAEELGDEVALKMVEDLEAALRSSSS
# B18: il10ra_site1_sap_24_mot_HHH_b1_03314_af2_000000278_0001_42_55_H_._HHH_b2_04543_af2_0001_0000400009_0000002_0_0001 (protein)
# chain: SSSSSRDAEQTARALLKFARQLRNPEARKIALEEAEELAEKAGDEELLEEIEEELEKVGSSSSSS
# B19: il10ra_site1_normal_mot_HHH_b1_04693_000000238_0001_19_36_H_._HHH_b2_01083_0001_0000200019_0000001_1 (protein)
# chain: SSSSTQEEYRAVEEAIKEAIELFRRGNPEEAREVLEEAIEFVEKRGNYAAKFALERLLRLLSSSS
# B20: il10ra_site1_normal_mot_8756ee2cf497b5429c717dfc0c0bcfd6_0001_000000186_0001_1_13_H_._HHH_b1_04847_0001_0000300024_0000001_0_af2pred_0001 (protein)
# chain: SSSSDASKRVVELLREVVELLEQGNEEEAERLLEEAHEIAEENNNLNSLAIVEFILRLLKSSSSS
# B21: il10ra_site1_normal_mot_0750aae41c39e4229e2ea8fa354cc919_0001_1_000000144_0001_37_51_H_._HHH_b2_02525_0001_0000100006_0000001_0 (protein)
# chain: SSSDEEQQVLELLARAARLAWRGNPEEARELVEEAEELAKELNDPKLEIAVRFWKRLDEERSSSS
# B22: il10ra_site1_normal_mot_HHH_b1_05879_000000258_0001_1_19_H_._HHH_b1_03479_0001_0000100008_0000001_0 (protein)
# chain: SSSSNTLEWSVRFALEEAERLYELGDPERAEELLRKLVELLREAGNEELVEEVERVLRELNSSSS
# B23: il10ra_site1_sap_12_mot_HHH_b1_03277_000000286_0001_44_57_H_._HHH_b2_06600_af2_0002_0000100004_0000002_0_0001_af2pred_dldesign_0_af2pred (protein)
# chain: SSSSSEESKAAKKAYEYAKFLKEAGAPELARRTLEAALEIAKQGNDEELIKEIEKLLEEISSSSS
# B24: il10ra_site1_normal_mot_HHH_b1_06994_000000193_0001_40_55_H_._HHH_b2_03412_0001_0000200023_0000001_0 (protein)
# chain: SSSSDQEEELVKAALRLARQAAEAGDEEAVRFLLLAAKLIAKEGNDEELLEEVEKLEEELSSSSS
# Target: il10ra, Q13651
# Assay: yeast display titration
row,Binder,apparent Kd
1,B1,inactive: no binding seen
2,B2,inactive: no binding seen
3,B3,inactive: no binding seen
4,B4,inactive: > 1500 nM
5,B5,inactive: no binding seen
6,B6,inactive: no binding seen
7,B7,inactive: no binding seen
8,B8,inactive: no binding seen
9,B9,inactive: no binding seen
10,B10,inactive: no binding seen
11,B11,inactive: no binding seen
12,B12,inactive: no binding seen
13,B13,inactive: no binding seen
14,B14,inactive: no binding seen
15,B15,inactive: no binding seen
16,B16,inactive: no binding seen
17,B17,inactive: no binding seen
18,B18,inactive: no binding seen
19,B19,inactive: no binding seen
20,B20,inactive: no binding seen
21,B21,inactive: no binding seen
22,B22,inactive: no binding seen
23,B23,inactive: no binding seen
24,B24,inactive: no binding seen

# Copied from the list.
# apparent Kd with B21 reads inactive: no binding seen
# apparent Kd with B18 reads inactive: no binding seen
